PubChem BioAssay AID1259254 | NCATS | 2017

Test: 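Finding genes that stop cells copying their DNA twice in one cycle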 (primary screen)
System: human HCT116 colorectal cancer cells
Reagent: single siRNA against human genes
Time to read-out: 3 days
Read-out: 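Imaged Hoechst DNA stain sorts each cell into a cycle phase by DNA amount; per plate, G2 fraction set to 0% for non-targeting and 100% for GMNN siRNA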
Reading the numbers: G2 robust z-score: higher = more G2 cells, more excess DNA replication
Active means: 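An siRNA counts as active if its G2 robust z-score lies at least 5 MADs above the screen median; here such calls match roughly 38% of GMNN control or more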
Here is an unselected part of about 59,000 deposited reagents. About 1,550 of them (2.6%) were called active. 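G2 share is only a proxy for re-replication; each gene was hit by three separate siRNAs, and active genes were retested.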 Reagents against one gene are numbered here. Not all columns of the deposit are shown. No sequences are given here. Not given: the amount of reagent.

GPRIN3 (GPRIN family member 3) #1 showed G2 robust z-score -0.0565; inactive.
GPRIN3 (GPRIN family member 3) #2 gave G2 robust z-score 1.2; inactive.
With knock-down of GPRIN3 (GPRIN family member 3) #3, the screen gave G2 robust z-score -0.531; inactive.
With knock-down of ADAMTS8 (ADAM metallopeptidase with thrombospondin type 1 motif 8) #1 the results were G2 robust z-score 6.81; active.
ADAMTS8 (ADAM metallopeptidase with thrombospondin type 1 motif 8) #2 gave G2 robust z-score -0.205; inactive.
ADAMTS8 (ADAM metallopeptidase with thrombospondin type 1 motif 8) #3 showed G2 robust z-score 0.795; inactive.
NDUFS7 (NADH:ubiquinone oxidoreductase core subunit S7) #1 scored G2 robust z-score -0.507; inactive.
Against NDUFS7 (NADH:ubiquinone oxidoreductase core subunit S7) #2, the entry reads G2 robust z-score 0.0955; inactive.
For NDUFS7 (NADH:ubiquinone oxidoreductase core subunit S7) #3, the values are G2 robust z-score 2.19; inactive.
SSBP3 (single stranded DNA binding protein 3) #1 showed G2 robust z-score 0.963; inactive.
After knock-down of SSBP3 (single stranded DNA binding protein 3) #2, the record shows G2 robust z-score 2.66; inactive.
Knock-down of SSBP3 (single stranded DNA binding protein 3) #3 gave: G2 robust z-score 0.0791; inactive.
For RNF180 (ring finger protein 180) #1, the entry reads G2 robust z-score 1.65; inactive.
RNF180 (ring finger protein 180) #2 gave G2 robust z-score 0.927; inactive.
Against RNF180 (ring finger protein 180) #3, the values are G2 robust z-score 6.99; active.
Depletion of TRMT2B (tRNA methyltransferase 2B) #1 resulted in: G2 robust z-score 0.22; inactive.
Knock-down of TRMT2B (tRNA methyltransferase 2B) #2 came out at: G2 robust z-score -0.912; inactive.
For TRMT2B (tRNA methyltransferase 2B) #3, the values are G2 robust z-score -0.64; inactive.
FBXO27 (F-box protein 27) #1 scored G2 robust z-score -0.869; inactive.
Depletion of FBXO27 (F-box protein 27) #2 gave: G2 robust z-score -0.721; inactive.
Depletion of FBXO27 (F-box protein 27) #3 gave: G2 robust z-score 0.174; inactive.
Knock-down of RCC1 (regulator of chromosome condensation 1) #1 resulted in: G2 robust z-score -1.16; inactive.
RCC1 (regulator of chromosome condensation 1) #2 showed G2 robust z-score 1.25; inactive.
RCC1 (regulator of chromosome condensation 1) #3 gave G2 robust z-score -0.58; inactive.
SH3YL1 (SH3 and SYLF domain containing 1) #1 scored G2 robust z-score 3.65; inactive.
After knock-down of SH3YL1 (SH3 and SYLF domain containing 1) #2, the screen gave G2 robust z-score 0.811; inactive.
After knock-down of SH3YL1 (SH3 and SYLF domain containing 1) #3, the screen gave G2 robust z-score 0.335; inactive.
Silencing of CCT7 (chaperonin containing TCP1 subunit 7) #1 gave: G2 robust z-score -0.43; inactive.
Against CCT7 (chaperonin containing TCP1 subunit 7) #2, the values are G2 robust z-score 1.49; inactive.
Knock-down of CCT7 (chaperonin containing TCP1 subunit 7) #3 came out at: G2 robust z-score 0.608; inactive.

Active calls (from the list above):
ADAMTS8 (ADAM metallopeptidase with thrombospondin type 1 motif 8) #1: G2 robust z-score = 6.81; outcome = active
RNF180 (ring finger protein 180) #3: G2 robust z-score = 6.99; outcome = active
